According to article doi:10.1101/2023.12.18.572149:
Results are given in words; binding and its absence hold for the method and conditions named. In cells and extracts the contact can be indirect. Some entries that bind do so weakly or less than the wild type.

Biological target: T1, Multiple C2 domains and transmembrane domain protein 4 (MCTP4), transiently expressed for co-immunoprecipitation (Arabidopsis thaliana) (UniProt Q9C8H3)
T1 sequence: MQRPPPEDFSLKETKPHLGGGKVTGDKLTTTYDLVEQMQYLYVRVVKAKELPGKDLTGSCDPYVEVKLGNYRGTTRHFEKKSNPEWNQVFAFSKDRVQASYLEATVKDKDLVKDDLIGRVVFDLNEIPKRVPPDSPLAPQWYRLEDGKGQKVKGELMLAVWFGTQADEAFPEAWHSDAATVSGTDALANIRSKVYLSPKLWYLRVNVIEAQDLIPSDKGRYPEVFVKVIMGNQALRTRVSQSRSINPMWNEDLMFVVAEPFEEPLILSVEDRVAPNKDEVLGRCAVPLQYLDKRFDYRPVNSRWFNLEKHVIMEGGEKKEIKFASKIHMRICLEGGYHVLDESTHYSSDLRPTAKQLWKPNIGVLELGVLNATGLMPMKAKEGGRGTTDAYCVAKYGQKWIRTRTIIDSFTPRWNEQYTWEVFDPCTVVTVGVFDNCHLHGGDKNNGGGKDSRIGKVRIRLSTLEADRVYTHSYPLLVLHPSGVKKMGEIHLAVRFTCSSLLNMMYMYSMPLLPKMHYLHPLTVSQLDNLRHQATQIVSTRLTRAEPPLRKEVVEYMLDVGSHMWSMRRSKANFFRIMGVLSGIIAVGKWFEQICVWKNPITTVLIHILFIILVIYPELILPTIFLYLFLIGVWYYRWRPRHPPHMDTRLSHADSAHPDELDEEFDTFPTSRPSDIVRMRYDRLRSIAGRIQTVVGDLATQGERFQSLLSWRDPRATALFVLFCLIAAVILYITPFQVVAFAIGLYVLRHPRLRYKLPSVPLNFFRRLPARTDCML
Assay: co-IP

binding: binds
B1: Multiple C2 domains and transmembrane domain protein 6 (MCTP6), transiently expressed for co-immunoprecipitation (protein, UniProt Q9SKA3 1-1029)
chain: MNKLVVEIVDASDLMPKDGQGSASPFVEVEFDEQRQRTQTRFKDLNPQWNEKLVFNVGDLKRLNNKTVDVTVYDDRRDNQPGKFLGRVKIAGAVVPLSESESGVQRYPLDKRGLFSNIKGDIALRIYAAPIDGGDFVSPPPDFAEKVMKEDKRFESQEFQFQNQNQNQNHYEQFEDEINNMETLKPTKKKEKESRTFHSIGAHAGGGGGAPPMSQAKQAYPPPPNQPEFRSDFMRAPGPPTGAVMQMQPPRQQNPEFQLIETSPPLAARMRQSYYYRSSGDKTSSTYDLVEQMHYLYVSVVKARDLPVMDVSGSLDPYVEVKLGNYKGLTKHLEKNSNPIWKQIFAFSKERLQSNLLEVTVKDKDLLTKDDFVGRVHIDLTEVPLRVPPDSPLAPQWYRLEDKKGMKTNRGEIMLAVWMGTQADESFPDAWHSDAHRVSHSNLSNTRSKVYFSPKLYYLRIHVMEAQDLVPSDKGRVPDAIVKIQAGNQMRATRTPQMRTMNPQWHEELMFVVSEPFEDMVIVSVDDRIGPGKDEILGRVFIPVRDVPVRQEVGKMPDPRWFNLQRHSMSMEEENEKRKEKFSSKILLRVCIEAGYHVLDESTHFSSDLQPSSKHLRKPSIGILELGILSARNLMPMKGKDGRMTDPYCVAKYGNKWVRTRTLLDALAPKWNEQYTWEVHDPCTVITIGVFDNSHVNDGGDFKDQRIGKVRVRLSTLETDRVYTHFYPLLVLTPGGLKKNGELQLALRYTCTGFVNMMAQYGRPLLPKMHYIQPIPVRHIDLLRHQAMQIVATRLSRSEPPLRREVVEYMLDVDYHMFSLRRSKANFSRIMSLLSSVTLVCKWFNDICTWRNPITTCLVHVLFLILVCYPELILPTVFLYLFVIGMWNYRYRPRHPPHMDARVSQADNAHPDELDEEFDTFPTSRPADIVRMRYDRLRSVGGRVQTVVGDLATQGERIQALLSWRDPRATALFIVFALIWAVFIYVTPFQVIAIIIGLFMLRHPRFRSRMPSVPANFFKRLPAKSDMLL
